PubChem BioAssay AID504774 | Drosophila RNAi Screening Center, 2011
In all, the deposit lists about 23,000 reagents; shown is a random part of those that have a named target and a result. 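Values are quantile-normalised luminescence on an arbitrary scale; higher means more cells surviving MMS.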 The numbers tell different reagents against one gene apart. A plus sign joins genes that one reagent is predicted to hit. Not all columns of the deposit are shown. Reagent sequences are not shown.

- Assay: 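Knock-downs that shift viability of MMS-exposed cells relative to untreated ones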 (primary screen)
- System: Drosophila Kc167 cells
- Reagent: long dsRNA against Drosophila genes, about 0.25 µg dsRNA per well
- Time to read-out: about 6 days: 3 days knock-down, then 3 days with or without MMS
- Treatment: methyl methanesulphonate 0.004% (w/v) for 3 days after knock-down
- Measurement: 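Viability in wells given MMS, read as ATP luminescence, normalised by quantiles plate by plate and averaged across replicates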
- Reading the numbers: mean viability with MMS and viability with MMS: higher = more surviving cells after MMS

CG17292 showed mean viability with MMS 3.38e6; viability with MMS, replicate 1 = 3.99e6.
Against moi + Tgs1 the deposit lists mean viability with MMS 3.42e6; viability with MMS, replicate 1 = 3.85e6.
After knock-down of Arl1, the record shows mean viability with MMS 3.76e6; viability with MMS, replicate 1 = 4.29e6.
Knock-down of PolI gave: mean viability with MMS 3.48e6; viability with MMS, replicate 1 = 3.94e6.
With knock-down of pHCl-2 the results were mean viability with MMS 3.25e6; viability with MMS, replicate 1 = 3.66e6.
Ctu1 scored mean viability with MMS 3.47e6; viability with MMS, replicate 1 = 4.01e6.
Silencing of Ccdc114 resulted in: mean viability with MMS 3.54e6; viability with MMS, replicate 1 = 3.98e6.
After knock-down of ALiX the results were mean viability with MMS 3.61e6; viability with MMS, replicate 1 = 4.08e6.
CG11158 showed mean viability with MMS 3.50e6; viability with MMS, replicate 1 = 3.95e6.
With knock-down of CG16739 the results were mean viability with MMS 3.29e6; viability with MMS, replicate 1 = 3.66e6.
Depletion of CG14306 (retired record) gave: mean viability with MMS 3.53e6; viability with MMS, replicate 1 = 3.84e6.
With knock-down of CG14234 #1 the results were mean viability with MMS 3.41e6; viability with MMS, replicate 1 = 3.94e6.
After knock-down of CG14234 #2 the results were mean viability with MMS 3.53e6; viability with MMS, replicate 1 = 4.05e6.
After knock-down of CG7824, the screen gave mean viability with MMS 3.50e6; viability with MMS, replicate 1 = 3.90e6.
Knock-down of CG14740 gave: mean viability with MMS 3.60e6; viability with MMS, replicate 1 = 4.17e6.
With knock-down of CG31676, the screen gave mean viability with MMS 3.61e6; viability with MMS, replicate 1 = 4.02e6.
Silencing of Rab18 came out at: mean viability with MMS 3.70e6; viability with MMS, replicate 1 = 4.28e6.
After knock-down of slf, the record shows mean viability with MMS 3.53e6; viability with MMS, replicate 1 = 4.02e6.
Against CG31735, the values are mean viability with MMS 3.53e6; viability with MMS, replicate 1 = 4.00e6.
yl scored mean viability with MMS 3.68e6; viability with MMS, replicate 1 = 4.16e6.
With knock-down of h-cup + Rbp, the screen gave mean viability with MMS 3.59e6; viability with MMS, replicate 1 = 4.00e6.
After knock-down of Tango10, the record shows mean viability with MMS 3.27e6; viability with MMS, replicate 1 = 3.13e6.
Against CG16989 the deposit lists mean viability with MMS 3.57e6; viability with MMS, replicate 1 = 4.08e6.
chic showed mean viability with MMS 3.62e6; viability with MMS, replicate 1 = 4.14e6.
CG14459 #1 scored mean viability with MMS 2.76e6; viability with MMS, replicate 1 = 3.49e6.
CG14459 #2 gave mean viability with MMS 3.40e6; viability with MMS, replicate 1 = 3.96e6.
Knock-down of CG5592 gave: mean viability with MMS 3.38e6; viability with MMS, replicate 1 = 3.87e6.
After knock-down of CG34032 (retired record), the record shows mean viability with MMS 3.41e6; viability with MMS, replicate 1 = 3.96e6.
Against Snrk #1, the values are mean viability with MMS 3.46e6; viability with MMS, replicate 1 = 3.80e6.
Snrk #2 gave mean viability with MMS 3.57e6; viability with MMS, replicate 1 = 4.08e6.
Depletion of Uba2 came out at: mean viability with MMS 3.23e6; viability with MMS, replicate 1 = 3.61e6.
With knock-down of TwdlB, the screen gave mean viability with MMS 3.51e6; viability with MMS, replicate 1 = 4.20e6.
Depletion of CG9692 gave: mean viability with MMS 3.71e6; viability with MMS, replicate 1 = 4.22e6.
Against 5-HT2B #1, the entry reads mean viability with MMS 3.54e6; viability with MMS, replicate 1 = 4.07e6.
For 5-HT2B #2, the entry reads mean viability with MMS 3.51e6; viability with MMS, replicate 1 = 3.99e6.

2 neighbouring entries already listed, quoted:
Tango10: mean viability with MMS = 3.27e6; viability with MMS, replicate 1 = 3.13e6
CG16989: mean viability with MMS = 3.57e6; viability with MMS, replicate 1 = 4.08e6
